# Reference: patent publication US20240158386A1, “BENZOXAZOLONE INHIBITORS OF INFLAMMASOMES” (ICAHN SCHOOL OF MEDICINE AT MOUNT SINAI, priority 2021, published 2024)
# Amino acid sequences for entries named in this document (tags omitted).
# UniProt Q8R4B8, whole entry: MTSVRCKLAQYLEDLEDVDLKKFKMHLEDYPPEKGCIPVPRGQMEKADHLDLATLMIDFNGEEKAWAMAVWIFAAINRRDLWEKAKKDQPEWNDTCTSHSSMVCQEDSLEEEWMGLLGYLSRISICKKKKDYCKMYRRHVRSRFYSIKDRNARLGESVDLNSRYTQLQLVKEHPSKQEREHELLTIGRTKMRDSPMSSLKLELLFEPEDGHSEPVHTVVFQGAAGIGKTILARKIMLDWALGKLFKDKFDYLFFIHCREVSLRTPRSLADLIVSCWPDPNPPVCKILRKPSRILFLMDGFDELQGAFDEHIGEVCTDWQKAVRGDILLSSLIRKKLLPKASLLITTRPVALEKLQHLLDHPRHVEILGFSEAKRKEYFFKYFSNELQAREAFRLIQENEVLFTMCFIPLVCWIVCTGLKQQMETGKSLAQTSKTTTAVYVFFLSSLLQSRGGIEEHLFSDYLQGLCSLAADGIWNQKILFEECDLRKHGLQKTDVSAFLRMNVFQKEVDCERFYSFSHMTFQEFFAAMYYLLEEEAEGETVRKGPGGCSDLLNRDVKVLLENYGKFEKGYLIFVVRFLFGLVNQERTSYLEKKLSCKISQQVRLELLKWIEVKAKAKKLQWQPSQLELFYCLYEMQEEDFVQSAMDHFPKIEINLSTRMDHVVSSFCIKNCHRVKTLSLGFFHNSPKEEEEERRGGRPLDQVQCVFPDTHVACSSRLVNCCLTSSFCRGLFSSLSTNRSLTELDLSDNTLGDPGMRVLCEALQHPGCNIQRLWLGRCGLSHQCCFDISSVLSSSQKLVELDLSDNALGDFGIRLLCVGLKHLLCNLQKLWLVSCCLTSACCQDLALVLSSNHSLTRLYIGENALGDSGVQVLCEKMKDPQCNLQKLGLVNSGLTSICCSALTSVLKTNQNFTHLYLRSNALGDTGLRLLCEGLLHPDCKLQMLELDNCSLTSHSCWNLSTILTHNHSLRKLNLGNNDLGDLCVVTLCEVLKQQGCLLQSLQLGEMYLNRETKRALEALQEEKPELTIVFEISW
# Target: NLRP3 inflammasome (Mus musculus, UniProt Q8R4B8)
# Experiment: NLRP3 inflammasome activation assay: IL-1β release by primary microglia after LPS and ATP
# Settings: 100 μM compound
# Description: Murine primary microglia. Mixed cortical cultures were prepared as previously described (Bronstein, R. et al. J. Vis. Exp. JoVE 50647 (2013) doi:10.3791/50647). Briefly, cortices from 2-3 days old, WT, or NLRP3 KO pups were isolated, digested, and seeded at a density of 8 cortices per 10 ml petri dish. Every three days, the medium was replaced by fresh culture medium (DMEM, 10% FBS, 1% penicillin-streptomycin). After three weeks, mixed glial cultures had reached confluence, and microglia cells were isolated by mild trypsinization as previously described (Saura, J. et al. Glia 44, 183-189 (2003)). […] Cells were counted and seeded at the desired density, typically 7.5·10^4 cells/well in 24 well-plates. […]
# Cytokine quantification. IL-1β in cell supernatants and brain tissue samples—after the different treatment groups—was quantified using the Mouse IL-1 beta/IL-1F2 DuoSet ELISA kit (R&D systems), IL-6 in cell culture supernatant was measured through the Mouse IL-6 ELISA kit (ThermoFisher), TNF-α in cell culture supernatants was determined using the Mouse TNF-alpha DuoSet ELISA (R*D systems), and IL-18 in brain tissue was measured through the IL-18 Mouse ELISA Kit (Invitrogen) following the manufacturers' recommended protocol. IL-1β precursor and cleaved IL-1β in the FC of mice treated with vehicles, LPS, or C77-LPS was assessed by western blot. […]
smiles,measurement,value
O=c1[nH]nc(-c2ccc(OCc3ccc(F)cc3)cc2)o1,inhibition of IL-1β release upon NLRP3 activation,completely inhibited IL-1β and completely prevented IL-1β secretion

# The source holds more than one record for some entries. Only these are listed. The source may hold further records. Values that stand side by side do not match, cause unknown; they may come from other doses, times, organisms or constructs than stated.
